Measured data: PubChem BioAssay AID1671195 (Yale University, 2021)
Assay: 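Genes whose knockdown alters LDL uptake in liver cancer cells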 (primary screen). System: human Huh7 hepatoma cells. Reagent: siRNA pool against human genes, 18 nM. Time to read-out: about 2 to 2.5 days of knockdown, then 8 h LDL uptake. Treatment: DiI-labelled LDL at 30 µg/ml for 8 h, in lipoprotein-deficient serum medium. Measured: 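Per-cell DiI-LDL intensity by automated imaging; well means scaled to the plate median and given as a robust z-score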. Scale: robust z-score: higher = more LDL uptake after knockdown. Hit rule: 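a gene counts as active if at least two replicate z-scores exceed ±2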.
Here is one part, drawn at random, of about 22,000 deposited reagents. About 1,510 of them (6.9%) were called active. 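Active includes knockdowns raising or lowering LDL uptake; positive z-scores mean more uptake, negative mean less.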

The opening 3 records as a preview:
gene | robust z-score, replicate 1 | robust z-score, replicate 2 | robust z-score, replicate 3 | outcome
PROX2 | -0.268 | 0.0207 | 0.191 | inactive
SFMBT1 | 2.09 | 1.79 | -1.34 | inactive
ACSL5 | -1.07 | -0.579 | -0.963 | inactive

The list itself, repeating the preview:
gene | robust z-score, replicate 1 | robust z-score, replicate 2 | robust z-score, replicate 3 | outcome
PROX2 | -0.268 | 0.0207 | 0.191 | inactive
SFMBT1 | 2.09 | 1.79 | -1.34 | inactive
ACSL5 | -1.07 | -0.579 | -0.963 | inactive
SEC11B | 2.17 | 2.62 | 2.28 | active
TRARG1 | -1.01 | -1.03 | -0.818 | inactive
CALU | -0.682 | -0.485 | -0.158 | inactive
CD55 | -0.25 | -1.67 | -0.516 | inactive
MROH5 | -0.487 | -0.449 | -0.441 | inactive
LRTOMT | -0.475 | -0.259 | -0.237 | inactive
CTDSPL2 | 0.0952 | 0.752 | 1 | inactive
LOC442132 | -1.59 | -1.66 | -1.79 | inactive
TTF1 | 4.51 | 4.91 | 3.53 | active
TSBP1 | 0.728 | 2.62 | 0.206 | inactive
RFLNB | -0.762 | -0.489 | -0.478 | inactive
CFLAR | -1.12 | -0.593 | -0.688 | inactive
LINC01122 | 0.134 | 0.223 | 0.353 | inactive
LOC400796 (retired record) | 3.59 | 3.38 | 3.14 | active
NIBAN2 | 0.312 | 0.00837 | 0.204 | inactive
CD47 | -0.733 | -0.124 | -0.374 | inactive
TPD52L1 | -0.411 | 0.362 | -0.257 | inactive
GEMIN7 | -0.351 | -0.535 | -0.669 | inactive
UBL5 | -0.13 | -0.308 | -0.992 | inactive
OR8B12 | 1.07 | 0.896 | 1.23 | inactive
MTMR9 | -1.85 | -2.13 | -1.92 | active
LOC400201 (retired record) | 2.09 | 3.18 | 2.73 | active
PRSS12 | -1.46 | -2.05 | -0.961 | inactive
CIB1 | -0.869 | -0.0113 | -1.43 | inactive
EVL | 2.49 | 1.91 | -1.4 | active
TBC1D30 | 0.891 | 1.9 | 0.327 | inactive
LOC439961 (retired record) | -0.355 | 0.367 | -0.0283 | inactive
NKRF | -1.57 | -0.691 | -2 | inactive
MAGEB10 | 0.565 | 0.33 | 1.12 | inactive
PLA2G2C | 1.54 | 1.39 | 0.797 | inactive
CPNE9 | -0.153 | 0.943 | -0.14 | inactive
CCR2 | 0.67 | 0.433 | 0.697 | inactive
HIP1R | -0.616 | 0.948 | 0.0396 | inactive
IL11RA | -0.663 | -0.774 | -0.743 | inactive
CDK19 | -0.453 | -0.844 | 0.0052 | inactive
IFT43 | 0.424 | 0.823 | 1.13 | inactive
KDM5D | -0.263 | -0.237 | -0.318 | inactive
LOC389290 (retired record) | -1.07 | -1.52 | -1.28 | inactive
KCNC3 | -1.06 | -0.733 | -1.12 | inactive
GABRA5 | -0.81 | -0.442 | -0.544 | inactive
AFAP1L2 | -0.713 | -0.211 | -0.223 | inactive
BCL7C | 0.21 | -0.407 | 0.858 | inactive
TFDP1 | -1.18 | -0.949 | -1.07 | inactive
ELOA3P | 0.717 | 0.265 | 0.0399 | inactive
MYDGF | 0.563 | 1.25 | 0.0223 | inactive
LOC440312 (retired record) | 0.559 | 0.928 | 0.709 | inactive
PAPLN | 2.81 | 0.99 | 1.45 | inactive
STK36 | 0.358 | -0.358 | 0.712 | inactive
TRPV4 | 3.47 | 3.87 | 2.47 | active
MCM5 | -0.767 | -0.0748 | -0.711 | inactive
HTR3C | -1.14 | -0.453 | -1.36 | inactive
LOC440057 (retired record) | -0.954 | -0.755 | -0.91 | inactive
TCHP | -0.345 | -0.143 | 0.767 | inactive
CTU1 | -1.73 | -1.88 | -1.95 | inactive
SSPN | -0.944 | 1.78 | 0.313 | inactive
DDX23 | 0.542 | -1.3 | -1.68 | inactive
RHEX | -0.457 | -0.591 | -0.763 | inactive
ADARB1 | 0.178 | 0.901 | 0.703 | inactive
CSPG4P5 | -0.891 | -2.25 | -1.62 | inactive
LOC442243 (retired record) | -1.16 | -1.07 | -1.37 | inactive
IL18R1 | 0.773 | 0.781 | 0.792 | inactive
TCAP | 1.06 | 1.56 | 1.97 | inactive
LOC387710 (retired record) | -0.17 | 0.366 | 0.419 | inactive
PTPN12 | -0.398 | -0.583 | -0.784 | inactive
LINC01931 | -0.901 | -0.914 | -0.874 | inactive
